Data published in the supplement of paper PMC11732987, “Enantioselective OTUD7B fragment discovery through chemoproteomics screening and high-throughput optimisation” (Communications Chemistry, 2025).
The list shows a part of the results. The data scatter; read single values as rough.

Sequences of proteins named here, by UniProt entry; tags and fusion partners are left off. A change or cut given only in a name is not applied to a line headed by its entry. Residues count along the entry.
UniProt Q96KG9: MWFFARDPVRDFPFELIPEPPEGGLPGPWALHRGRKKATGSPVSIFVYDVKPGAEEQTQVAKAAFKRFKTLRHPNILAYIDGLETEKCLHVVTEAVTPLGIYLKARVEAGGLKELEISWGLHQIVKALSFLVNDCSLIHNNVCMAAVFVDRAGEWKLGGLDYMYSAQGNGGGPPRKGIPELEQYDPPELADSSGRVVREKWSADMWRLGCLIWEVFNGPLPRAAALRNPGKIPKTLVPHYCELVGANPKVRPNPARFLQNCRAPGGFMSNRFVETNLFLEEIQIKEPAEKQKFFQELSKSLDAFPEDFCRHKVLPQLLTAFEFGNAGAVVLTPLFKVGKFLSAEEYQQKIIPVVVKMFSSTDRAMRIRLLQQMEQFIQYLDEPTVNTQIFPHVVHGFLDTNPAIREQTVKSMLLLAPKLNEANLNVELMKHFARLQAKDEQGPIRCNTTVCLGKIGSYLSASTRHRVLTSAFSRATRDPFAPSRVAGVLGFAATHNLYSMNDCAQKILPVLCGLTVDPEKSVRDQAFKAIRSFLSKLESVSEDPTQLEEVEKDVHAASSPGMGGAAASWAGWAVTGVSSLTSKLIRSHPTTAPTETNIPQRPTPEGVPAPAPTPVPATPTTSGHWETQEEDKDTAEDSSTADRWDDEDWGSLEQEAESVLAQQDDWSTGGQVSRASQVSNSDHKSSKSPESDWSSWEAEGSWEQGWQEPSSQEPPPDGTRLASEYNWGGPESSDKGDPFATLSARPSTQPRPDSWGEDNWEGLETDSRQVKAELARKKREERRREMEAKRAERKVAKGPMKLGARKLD
UniProt Q12874: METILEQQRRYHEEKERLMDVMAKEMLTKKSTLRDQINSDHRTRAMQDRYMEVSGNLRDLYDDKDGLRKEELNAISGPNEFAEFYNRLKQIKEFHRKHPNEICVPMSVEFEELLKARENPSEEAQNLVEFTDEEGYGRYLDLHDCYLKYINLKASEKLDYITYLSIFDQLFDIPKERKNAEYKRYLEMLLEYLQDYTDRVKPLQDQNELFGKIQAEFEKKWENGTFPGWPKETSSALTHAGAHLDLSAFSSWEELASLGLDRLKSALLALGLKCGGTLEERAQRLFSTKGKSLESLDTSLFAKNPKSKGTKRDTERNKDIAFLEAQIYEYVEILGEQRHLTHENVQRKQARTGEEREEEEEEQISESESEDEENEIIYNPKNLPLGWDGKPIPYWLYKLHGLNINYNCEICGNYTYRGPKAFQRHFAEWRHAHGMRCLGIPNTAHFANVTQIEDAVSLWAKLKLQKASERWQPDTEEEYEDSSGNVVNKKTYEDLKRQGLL
UniProt Q8NEM2: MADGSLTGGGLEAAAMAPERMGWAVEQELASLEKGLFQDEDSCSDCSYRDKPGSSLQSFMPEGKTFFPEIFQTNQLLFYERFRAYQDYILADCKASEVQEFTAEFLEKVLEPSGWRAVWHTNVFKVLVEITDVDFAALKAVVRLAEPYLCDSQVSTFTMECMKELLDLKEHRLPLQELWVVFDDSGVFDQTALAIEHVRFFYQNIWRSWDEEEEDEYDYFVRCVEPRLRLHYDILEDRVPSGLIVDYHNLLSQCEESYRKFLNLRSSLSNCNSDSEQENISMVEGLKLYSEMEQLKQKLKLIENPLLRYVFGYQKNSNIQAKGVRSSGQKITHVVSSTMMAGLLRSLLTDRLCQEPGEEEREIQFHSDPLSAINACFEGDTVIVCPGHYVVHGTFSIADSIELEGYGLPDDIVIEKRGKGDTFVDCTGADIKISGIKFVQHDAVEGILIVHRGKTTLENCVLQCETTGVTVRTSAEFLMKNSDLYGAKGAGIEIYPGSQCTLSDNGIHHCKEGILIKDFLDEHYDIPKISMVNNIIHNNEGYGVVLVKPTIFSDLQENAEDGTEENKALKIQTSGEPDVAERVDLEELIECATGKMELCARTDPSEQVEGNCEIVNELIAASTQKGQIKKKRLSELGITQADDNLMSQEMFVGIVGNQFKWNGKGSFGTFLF
UniProt A1X283: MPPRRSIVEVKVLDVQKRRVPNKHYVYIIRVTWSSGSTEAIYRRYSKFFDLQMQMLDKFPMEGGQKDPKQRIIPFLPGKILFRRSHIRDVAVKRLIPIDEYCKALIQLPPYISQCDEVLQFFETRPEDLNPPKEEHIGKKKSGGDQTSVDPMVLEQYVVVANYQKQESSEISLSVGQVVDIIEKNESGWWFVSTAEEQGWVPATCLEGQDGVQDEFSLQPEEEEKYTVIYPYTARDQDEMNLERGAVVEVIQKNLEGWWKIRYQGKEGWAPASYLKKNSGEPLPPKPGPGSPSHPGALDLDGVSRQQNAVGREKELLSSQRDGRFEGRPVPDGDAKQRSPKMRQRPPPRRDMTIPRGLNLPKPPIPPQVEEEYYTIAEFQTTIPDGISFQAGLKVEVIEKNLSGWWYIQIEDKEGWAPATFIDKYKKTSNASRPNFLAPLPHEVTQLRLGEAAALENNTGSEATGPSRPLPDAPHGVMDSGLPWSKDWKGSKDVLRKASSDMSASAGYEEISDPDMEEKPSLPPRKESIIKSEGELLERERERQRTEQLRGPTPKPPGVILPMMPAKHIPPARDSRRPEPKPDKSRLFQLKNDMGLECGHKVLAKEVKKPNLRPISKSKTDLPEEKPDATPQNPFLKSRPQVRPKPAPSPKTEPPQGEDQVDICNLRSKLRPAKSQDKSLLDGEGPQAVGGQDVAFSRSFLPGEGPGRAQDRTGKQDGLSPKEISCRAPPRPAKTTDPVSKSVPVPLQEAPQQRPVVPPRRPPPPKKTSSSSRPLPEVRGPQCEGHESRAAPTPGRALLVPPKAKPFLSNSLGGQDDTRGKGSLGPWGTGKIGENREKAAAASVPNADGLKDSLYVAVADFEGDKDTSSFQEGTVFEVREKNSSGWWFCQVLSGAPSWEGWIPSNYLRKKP
UniProt Q9UHR5: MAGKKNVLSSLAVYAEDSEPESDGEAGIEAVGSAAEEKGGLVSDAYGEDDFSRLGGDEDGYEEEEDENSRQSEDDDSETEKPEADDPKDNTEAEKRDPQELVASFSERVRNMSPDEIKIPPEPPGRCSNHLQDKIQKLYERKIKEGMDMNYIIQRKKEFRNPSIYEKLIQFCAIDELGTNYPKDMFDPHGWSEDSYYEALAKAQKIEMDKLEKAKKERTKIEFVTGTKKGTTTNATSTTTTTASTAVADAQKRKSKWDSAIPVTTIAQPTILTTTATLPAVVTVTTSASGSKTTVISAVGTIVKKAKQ
UniProt Q99590, 449-469: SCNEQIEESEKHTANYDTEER
UniProt Q6SZW1: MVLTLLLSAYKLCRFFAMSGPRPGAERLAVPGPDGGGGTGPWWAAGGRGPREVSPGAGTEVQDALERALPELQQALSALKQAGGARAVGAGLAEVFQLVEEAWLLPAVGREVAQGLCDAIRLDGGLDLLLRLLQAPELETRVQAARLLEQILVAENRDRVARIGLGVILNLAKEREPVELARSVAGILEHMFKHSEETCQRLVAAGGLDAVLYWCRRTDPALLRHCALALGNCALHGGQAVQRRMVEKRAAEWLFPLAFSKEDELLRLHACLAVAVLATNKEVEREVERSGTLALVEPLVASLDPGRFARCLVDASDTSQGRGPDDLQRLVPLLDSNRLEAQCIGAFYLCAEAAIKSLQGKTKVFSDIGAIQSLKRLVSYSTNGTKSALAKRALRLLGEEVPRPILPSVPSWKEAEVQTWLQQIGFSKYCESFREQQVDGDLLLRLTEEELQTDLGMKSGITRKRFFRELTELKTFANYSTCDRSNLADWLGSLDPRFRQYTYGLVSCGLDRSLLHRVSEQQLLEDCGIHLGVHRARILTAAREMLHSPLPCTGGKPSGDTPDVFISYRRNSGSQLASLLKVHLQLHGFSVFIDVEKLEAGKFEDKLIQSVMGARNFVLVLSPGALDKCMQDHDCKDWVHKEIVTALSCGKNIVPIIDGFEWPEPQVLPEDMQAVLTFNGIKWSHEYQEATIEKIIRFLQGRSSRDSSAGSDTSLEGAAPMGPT
UniProt Q12872: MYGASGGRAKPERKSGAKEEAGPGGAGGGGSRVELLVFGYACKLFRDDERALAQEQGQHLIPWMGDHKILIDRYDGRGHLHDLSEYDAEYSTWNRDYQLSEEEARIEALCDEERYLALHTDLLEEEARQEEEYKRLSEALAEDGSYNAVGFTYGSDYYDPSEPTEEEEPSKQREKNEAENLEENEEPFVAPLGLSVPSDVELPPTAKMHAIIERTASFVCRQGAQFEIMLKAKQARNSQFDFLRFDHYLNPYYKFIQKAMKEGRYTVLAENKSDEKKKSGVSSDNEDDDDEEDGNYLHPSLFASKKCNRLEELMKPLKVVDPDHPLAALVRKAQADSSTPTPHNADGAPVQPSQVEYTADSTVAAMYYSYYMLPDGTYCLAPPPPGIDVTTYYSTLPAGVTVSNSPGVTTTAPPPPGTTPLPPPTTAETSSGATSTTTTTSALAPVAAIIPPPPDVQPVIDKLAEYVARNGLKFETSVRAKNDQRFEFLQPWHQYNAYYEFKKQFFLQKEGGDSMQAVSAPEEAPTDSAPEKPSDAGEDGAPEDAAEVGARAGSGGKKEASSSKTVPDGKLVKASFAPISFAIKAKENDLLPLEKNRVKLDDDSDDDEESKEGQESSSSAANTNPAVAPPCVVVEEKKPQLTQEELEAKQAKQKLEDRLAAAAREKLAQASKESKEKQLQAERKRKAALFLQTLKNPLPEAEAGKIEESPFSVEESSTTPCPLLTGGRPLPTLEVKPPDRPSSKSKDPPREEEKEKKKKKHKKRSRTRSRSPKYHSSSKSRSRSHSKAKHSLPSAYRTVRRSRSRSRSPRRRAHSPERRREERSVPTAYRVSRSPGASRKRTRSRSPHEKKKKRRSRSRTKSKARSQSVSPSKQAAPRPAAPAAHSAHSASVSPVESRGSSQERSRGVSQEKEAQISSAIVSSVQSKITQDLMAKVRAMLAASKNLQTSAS
UniProt Q562F6: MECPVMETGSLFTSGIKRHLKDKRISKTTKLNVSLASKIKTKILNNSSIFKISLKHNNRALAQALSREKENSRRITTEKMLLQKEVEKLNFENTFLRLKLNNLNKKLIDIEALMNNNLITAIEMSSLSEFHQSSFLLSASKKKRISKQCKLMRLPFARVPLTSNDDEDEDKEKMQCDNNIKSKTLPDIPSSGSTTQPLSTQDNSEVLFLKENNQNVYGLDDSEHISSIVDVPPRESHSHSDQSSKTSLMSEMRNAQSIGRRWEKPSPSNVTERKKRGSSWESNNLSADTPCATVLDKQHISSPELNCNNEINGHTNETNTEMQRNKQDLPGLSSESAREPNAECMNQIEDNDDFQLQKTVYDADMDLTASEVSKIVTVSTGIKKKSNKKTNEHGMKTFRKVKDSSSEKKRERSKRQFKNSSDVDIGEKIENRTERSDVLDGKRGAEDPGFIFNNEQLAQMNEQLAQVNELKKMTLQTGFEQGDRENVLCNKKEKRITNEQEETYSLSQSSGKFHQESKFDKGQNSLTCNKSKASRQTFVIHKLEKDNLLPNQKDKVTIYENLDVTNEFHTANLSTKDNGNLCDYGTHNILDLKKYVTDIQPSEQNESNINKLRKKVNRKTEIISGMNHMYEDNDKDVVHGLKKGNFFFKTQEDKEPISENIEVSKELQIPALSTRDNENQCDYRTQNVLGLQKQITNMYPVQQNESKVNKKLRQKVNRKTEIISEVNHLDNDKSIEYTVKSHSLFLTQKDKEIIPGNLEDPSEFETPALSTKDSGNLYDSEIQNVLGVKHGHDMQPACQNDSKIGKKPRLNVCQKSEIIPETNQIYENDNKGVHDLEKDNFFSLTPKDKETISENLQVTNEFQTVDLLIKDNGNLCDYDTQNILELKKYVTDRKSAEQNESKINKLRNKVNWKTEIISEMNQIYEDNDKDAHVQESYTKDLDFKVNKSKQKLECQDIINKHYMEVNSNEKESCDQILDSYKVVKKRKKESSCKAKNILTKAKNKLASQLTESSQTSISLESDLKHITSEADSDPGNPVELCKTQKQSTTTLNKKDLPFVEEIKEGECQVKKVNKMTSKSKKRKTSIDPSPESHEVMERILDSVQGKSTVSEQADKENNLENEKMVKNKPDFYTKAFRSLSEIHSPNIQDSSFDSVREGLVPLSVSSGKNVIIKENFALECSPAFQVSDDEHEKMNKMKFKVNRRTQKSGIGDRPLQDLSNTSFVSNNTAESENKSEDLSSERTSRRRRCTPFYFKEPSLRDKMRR
UniProt Q7L8J4: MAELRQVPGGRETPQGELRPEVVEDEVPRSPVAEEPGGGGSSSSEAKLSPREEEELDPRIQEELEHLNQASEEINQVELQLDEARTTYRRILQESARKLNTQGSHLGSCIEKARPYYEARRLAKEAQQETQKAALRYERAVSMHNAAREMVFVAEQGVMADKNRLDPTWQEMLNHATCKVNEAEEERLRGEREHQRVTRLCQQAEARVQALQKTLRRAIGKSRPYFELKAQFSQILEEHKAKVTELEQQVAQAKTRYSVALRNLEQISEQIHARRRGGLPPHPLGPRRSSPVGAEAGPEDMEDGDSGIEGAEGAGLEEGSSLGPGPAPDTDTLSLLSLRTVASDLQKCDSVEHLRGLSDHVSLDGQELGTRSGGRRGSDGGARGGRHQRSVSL

These targets were tested with ClCC(=O)N[C@H]1CCCc2ccccc12 (assay: log2 mean competition ratio of IA-DTB cysteine labelling (DMSO/compound) (log2 ratio); higher = stronger cysteine engagement by compound). Details: 50 µM; treatment time: 4 h; cell line lysate: HEK293T.
Experimental: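 IA-DTB competitive cysteine chemoproteomics in HEK293T RIPA lysate. Lysates were treated with compound 29 or 30 at 50 or 200 µM for 4 h, then IA-DTB (500 µM, 1 h), trypsin-digested, NeutrAvidin-enriched and analysed by diaPASEF. Competition ratio = intensity DMSO / intensity compound (n=4 treated, n=64 DMSO); binding: mean log2 CR ≥ 1 and p ≤ 0.05 plus QC filters. Target is the cysteine site.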

Target | log2 mean competition ratio
SCYL1 C309 (UniProt Q96KG9) | -0.0376
SF3A3 C145 (UniProt Q12874) | 0.154
SENP2 C283 (UniProt Q9HC62) | 0.137
SHCBP1 C353 (UniProt Q8NEM2) | -0.114
SH3PXD2B C783 (UniProt A1X283) | 0.231
SIK3 C655 | -0.18
SAP30BP C127 (UniProt Q9UHR5) | 0.0703
SH3PXD2B C102 (UniProt A1X283) | 0.407
SCYL1 C241 (UniProt Q96KG9) | -0.143
SCAF11 C450 (UniProt Q99590) | -0.0385
SARM1 C482 (UniProt Q6SZW1) | -0.0271
SARM1 C311 (UniProt Q6SZW1) | 0.204
SFSWAP C220 (UniProt Q12872) | 0.0956
SH3RF3 C194 | -0.341
SGO2 C1067 (UniProt Q562F6) | -0.229
SEC31A C704 | 0.178
SEMA4F C170 | -0.304
SIPA1L3 C1775 | 0.138
SH3BP5L C348 (UniProt Q7L8J4) | -0.134
SF3A1 C244 (UniProt Q15459) | 0.173
SETD1A C1514 (UniProt O15047) | -0.146

Same assay, conditions: 200 µM; treatment time: 4 h; cell line lysate: HEK293T

Target | log2 mean competition ratio
SCYL1 C309 (UniProt Q96KG9) | 0.358
SF3A3 C145 (UniProt Q12874) | -0.0694
SENP2 C283 (UniProt Q9HC62) | 0.216
SHCBP1 C353 (UniProt Q8NEM2) | -0.181
SH3PXD2B C783 (UniProt A1X283) | 0.0504
SIK3 C655 | 0.253
SAP30BP C127 (UniProt Q9UHR5) | -0.0108
SH3PXD2B C102 (UniProt A1X283) | -0.0454
SCYL1 C241 (UniProt Q96KG9) | 0.21
SCAF11 C450 (UniProt Q99590) | -0.0817
SARM1 C482 (UniProt Q6SZW1) | -0.0098
SARM1 C311 (UniProt Q6SZW1) | 0.279
SFSWAP C220 (UniProt Q12872) | -0.0282
SH3RF3 C194 | 0.281
SGO2 C1067 (UniProt Q562F6) | 0.0917
SEC31A C704 | 0.0138
SIPA1L3 C1775 | 0.215
SH3BP5L C348 (UniProt Q7L8J4) | 0.134
SF3A1 C244 (UniProt Q15459) | -0.161
SETD1A C1514 (UniProt O15047) | -0.0727
